Laboratory results taken from article doi:10.1101/2022.04.01.486681.
Results are given in words; binding and its absence hold for the method and conditions named. In cells and extracts the contact can be indirect. Binding can be weak; no strength is given.

By UniProt entry, the sequences of proteins in these tests, tags left out. Where a name states a change or a piece, a line headed by the entry shows the natural chain unless it says otherwise.
UniProt Q4F883: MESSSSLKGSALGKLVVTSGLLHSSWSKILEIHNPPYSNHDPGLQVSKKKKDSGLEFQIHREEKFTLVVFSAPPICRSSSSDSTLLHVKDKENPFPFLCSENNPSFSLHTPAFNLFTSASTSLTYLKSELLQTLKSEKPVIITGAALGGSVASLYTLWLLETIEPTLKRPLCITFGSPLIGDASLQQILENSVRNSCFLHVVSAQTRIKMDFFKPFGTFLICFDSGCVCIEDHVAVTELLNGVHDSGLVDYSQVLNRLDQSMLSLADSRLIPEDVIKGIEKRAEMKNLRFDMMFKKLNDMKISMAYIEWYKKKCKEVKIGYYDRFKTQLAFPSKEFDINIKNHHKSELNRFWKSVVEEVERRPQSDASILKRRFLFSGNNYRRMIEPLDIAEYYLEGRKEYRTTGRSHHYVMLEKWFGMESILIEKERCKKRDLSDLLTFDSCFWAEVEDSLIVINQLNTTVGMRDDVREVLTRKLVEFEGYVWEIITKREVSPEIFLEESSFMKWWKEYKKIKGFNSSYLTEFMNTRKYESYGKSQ

Biological target: SAG101 (Senescence-Associated Gene 101) (Arabidopsis) (UniProt Q4F883)
Test: co-purification

binding: binds
B1: EDS1 (Enhanced Disease Susceptibility 1) (protein, UniProt Q9XF23 1-623)
chain: MAFEALTGINGDLITRSWSASKQAYLTERYHKEEAGAVVIFAFQPSFSEKDFFDPDNKSSFGEIKLNRVQFPCMRKIGKGDVATVNEAFLKNLEAVIDPRTSFQASVEMAVRSRKQIVFTGHSSGGATAILATVWYLEKYFIRNPNVYLEPRCVTFGAPLVGDSIFSHALGREKWSRFFVNFVTRFDIVPRITLARKASVEETLPHVLAQLDPRNSSVQESEQRITEFYTSVMRDTSTVANQAVCELTGSAEAILETLSSFLELSPYRPAGTFVFSTEKRLVAVNNSDAILQMLFYTCQASDEQEWSLIPFRSIRDHHSYEELVQSMGMKLFNHLDGENSIESSLNDLGVSTRGRQYVQAALEEEKKRVENQKKIIQVIQQERFLKKLAWIEDEYKPKCQAHKNGYYDSFKVSNEENDFKANVKRAELAGVFDEVLGLLKKCQLPDEFEGDIDWIKLATRYRRLVEPLDIANYHRHLKNEDTGPYMKRGRPTRYIYAQRGYEHHILKPNGMIAEDVFWNKVNGLNLGLQLEEIQETLKNSGSECGSCFWAEVEELKGKPYEEVEVRVKTLEGMLREWITAGEVDEKEIFLEGSTFRKWWITLPKNHKSHSPLRDYMMDEITDT
